From ChEMBL document CHEMBL3988442, “University of Dundee, Small-Polar-MMV Screening Library” (2021).

Protein sequences, listed by entry. Tags and fused reporters are not part of them. Residues count along the entry.
UniProt Q8IDJ8, 1-583: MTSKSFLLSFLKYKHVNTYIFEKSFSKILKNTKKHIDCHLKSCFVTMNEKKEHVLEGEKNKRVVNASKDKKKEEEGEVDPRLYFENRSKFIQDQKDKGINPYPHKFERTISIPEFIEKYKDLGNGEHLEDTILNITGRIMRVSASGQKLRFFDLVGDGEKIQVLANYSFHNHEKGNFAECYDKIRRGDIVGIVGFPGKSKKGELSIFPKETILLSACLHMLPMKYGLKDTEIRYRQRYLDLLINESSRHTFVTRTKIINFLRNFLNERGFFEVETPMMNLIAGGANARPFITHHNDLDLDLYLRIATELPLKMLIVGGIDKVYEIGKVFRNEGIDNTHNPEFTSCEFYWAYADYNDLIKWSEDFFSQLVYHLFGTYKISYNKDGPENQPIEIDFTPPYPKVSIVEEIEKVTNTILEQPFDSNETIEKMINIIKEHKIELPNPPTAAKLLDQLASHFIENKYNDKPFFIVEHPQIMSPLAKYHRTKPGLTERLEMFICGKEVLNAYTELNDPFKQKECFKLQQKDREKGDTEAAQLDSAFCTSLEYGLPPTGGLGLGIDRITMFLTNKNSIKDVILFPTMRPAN
UniProt P9WFT3, whole entry: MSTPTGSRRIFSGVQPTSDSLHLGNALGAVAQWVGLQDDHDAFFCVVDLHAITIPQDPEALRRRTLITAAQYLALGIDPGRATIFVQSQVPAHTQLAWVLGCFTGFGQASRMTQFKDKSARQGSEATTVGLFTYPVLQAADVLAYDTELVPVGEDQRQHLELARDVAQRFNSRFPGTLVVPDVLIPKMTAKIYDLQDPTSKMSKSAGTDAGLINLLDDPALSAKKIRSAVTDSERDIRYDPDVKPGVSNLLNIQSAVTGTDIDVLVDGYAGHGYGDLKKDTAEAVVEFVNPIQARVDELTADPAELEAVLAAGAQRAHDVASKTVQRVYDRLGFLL
UniProt P9WPC5, whole entry: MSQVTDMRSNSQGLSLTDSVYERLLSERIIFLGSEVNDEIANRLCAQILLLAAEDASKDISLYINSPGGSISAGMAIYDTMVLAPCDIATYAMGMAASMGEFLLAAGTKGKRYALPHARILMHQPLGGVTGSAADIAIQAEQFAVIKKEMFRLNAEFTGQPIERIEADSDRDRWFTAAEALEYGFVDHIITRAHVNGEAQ
UniProt P9WPC3, whole entry partner: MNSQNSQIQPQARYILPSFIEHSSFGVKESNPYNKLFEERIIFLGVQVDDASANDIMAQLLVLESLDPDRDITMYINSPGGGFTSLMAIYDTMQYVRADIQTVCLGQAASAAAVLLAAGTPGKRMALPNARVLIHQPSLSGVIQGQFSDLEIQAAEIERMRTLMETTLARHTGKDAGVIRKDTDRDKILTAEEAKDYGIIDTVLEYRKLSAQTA

PfKRS1: 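Lysine-tRNA ligase, Plasmodium falciparum 3D7 (UniProt Q8IDJ8). Enzyme assay of the cytosolic lysyl-tRNA synthetase in 384-well plates, read by luminescence. Compounds at 30 µM. Higher reads as stronger inhibition, judged from the few compounds that gave an IC50. Size under these conditions: about 69,000 compounds, about 49 of them at 50% or above in at least one test.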
MtTrpRS: 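Tryptophan-tRNA ligase, Mycobacterium tuberculosis (UniProt P9WFT3). Enzyme assay of tryptophanyl-tRNA synthetase; the read-out is not stated. Compounds at 10 µM. Higher most likely means stronger inhibition; the record gives no direction and few retests gave an IC50. Of about 65,000 compounds tested this way, about 64 (0.098%) reached 50% or more in at least one test.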
ClpP1P2: 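ClpP1P2, Mycobacterium tuberculosis (UniProt P9WPC5 and UniProt P9WPC3). Protease assay of ClpP1P2, read by the AMC dye that it sets free. Concentration: 50 µM. Higher reads as stronger inhibition, judged from the few compounds that gave an IC50. Most other retested compounds had strongly negative values. About 69,000 compounds were tested under these conditions; 0.015% (about 10) showed 50% or more at least once.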

Each number is a percent effect as filed.
The record does not define 0% and 100%; most values in the screen are far below 50% and negative numbers occur (in some assays of this library far below -100).
Compounds were drawn at random from those tested, without regard to their results.

Result for COc1ccc(CN(C)C(=O)NC(C)c2nncn2C)cc1F (centres undefined) was PfKRS1: -1.359%; MtTrpRS: -1.57%; ClpP1P2: -0.5851%. With Cc1nccc(C2CN(C(=O)c3cncnc3)C2)n1 the screen gave PfKRS1: 0.7018%; MtTrpRS: -6.792%; ClpP1P2: 12.67%. O=C(c1ccc(Cl)cc1)N1CCC(N2CCCCC2=O)CC1 read PfKRS1: 2.778%; MtTrpRS: -3.717%; ClpP1P2: 4.73%. Result for CNC1CCCN(Cc2noc(C3CC3)n2)C1 (centres undefined) was PfKRS1: -0.6013%; MtTrpRS: -0.2322%; ClpP1P2: -18.93%.

With CC1CCCN(CCNC(=O)c2ccn(-c3cccc(F)c3)n2)C1 (centres undefined) the screen gave PfKRS1: 0.3436%; MtTrpRS: 5.063%; ClpP1P2: -5.677%. For CC1CCCN(C(=O)c2cccc(CS(C)(=O)=O)c2)C1 (centres undefined) the result was PfKRS1: 2.133%; MtTrpRS: 1.114%; ClpP1P2: 25.15%. With Cc1cc(-c2cc3nc(C)c(C)c(NCC4COCCO4)n3n2)no1 (centres undefined) the screen gave PfKRS1: 1.865%; MtTrpRS: -5.548%; ClpP1P2: -6.08%. CCN1C(=O)CC(c2cnn(C)c2)C12CCN(C(=O)c1ccoc1)CC2 (centres undefined) gave PfKRS1: 5.886%; MtTrpRS: -5.489%; ClpP1P2: -5.9%.

CSc1nc(C2CC2)nc(C)c1C(=O)NCc1ccco1 read PfKRS1: -1.443%; MtTrpRS: -2.692%; ClpP1P2: -0.5981%. With COCCN1CC2(CCCN(C(=O)CCCc3cccs3)C2)CCC1=O (centres undefined) the screen gave PfKRS1: 0.5112%; MtTrpRS: 2.385%; ClpP1P2: 7.677%. With CC(C)n1c2ccccc2c2c1cc(C(=O)NCCO)n2C(=O)N(C)C the screen gave PfKRS1: 4.82%; ClpP1P2: -101%. For CCn1c(CN(C)CC(F)(F)F)nc2c(F)cccc21 the result was PfKRS1: 1.584%; MtTrpRS: -5.448%; ClpP1P2: -4.278%.

CC(=O)Nc1ccc2c(c1)nc1n2[C@@H](CNCc2ccccc2)COC1 gave PfKRS1: 1.92%; MtTrpRS: -2.636%; ClpP1P2: 2.236%. With Cn1cc(C(=O)N2CC[C@@H]3[C@@H]2CCN3Cc2ccncc2)cn1 the screen gave PfKRS1: 3.016%; MtTrpRS: -7.202%; ClpP1P2: 3.007%. Result for c1ccc2c(c1)CC(N1CCCN(Cc3cccc4nonc34)CC1)C2 was PfKRS1: -1.767%; MtTrpRS: -1.956%; ClpP1P2: -10.26%. Result for CCOCC(=O)NC1(c2cccc(Br)c2)CC1 was PfKRS1: -4.949%; MtTrpRS: -1.625%; ClpP1P2: -12.64%.

For CS(=O)(=O)N1C[C@@H]2CC[C@H](C1)N(CCC(=O)NCc1ccccc1F)C2 the result was PfKRS1: -0.127%; MtTrpRS: -2.129%; ClpP1P2: 3.139%. Cc1nn(C)c(C)c1C(C)NCc1ccsc1 (centres undefined) read PfKRS1: -3.533%; MtTrpRS: 3.971%; ClpP1P2: -12.26%. Result for CNC(=O)C1(CCCc2ccncc2)CCCN1 (centres undefined) was PfKRS1: 1.608%; MtTrpRS: -3.763%; ClpP1P2: 10.65%. Result for CN(C)Cc1cc(=O)n2c(n1)CN(CC1CC1)CCC2 was PfKRS1: 5.27%; MtTrpRS: -3.066%; ClpP1P2: -6.248%.

Result for COc1ccc(C(C(=O)O)N(C)CCN2CCCC2)c(C)c1 (centres undefined) was PfKRS1: 0.5241%; MtTrpRS: 4.909%; ClpP1P2: 11.61%. Result for Cc1cccc(CN2CCOCC2c2[nH]ncc2C)n1 (centres undefined) was PfKRS1: 2.354%; MtTrpRS: -1.632%; ClpP1P2: -10.93%. Cc1ccnc(C2(C)CCCN2C(=O)c2cnccn2)n1 (centres undefined) read PfKRS1: 1.301%; ClpP1P2: -11.17%. COc1ccccc1-c1nccnc1C1CCN(C(C)=O)CC1 gave PfKRS1: 3.373%; ClpP1P2: 3.398%.

O=C(Nc1ccccc1)N1CCN(Cc2noc(C3CC3)n2)CC1 gave PfKRS1: 0.3565%; MtTrpRS: -4.345%; ClpP1P2: -15.82%. For CCC(CO)NC(=O)c1cc(COc2ccc(OC)cc2Cl)[nH]n1 (centres undefined) the result was PfKRS1: 5.017%; MtTrpRS: -0.7389%; ClpP1P2: -10.69%. With Cc1ccc(S(=O)(=O)c2ncccc2CN2CCCCC2)cc1 the screen gave PfKRS1: 2.594%; MtTrpRS: -0.07003%; ClpP1P2: -15.71%. OC(CNCCn1cccn1)COc1ccc(Br)cc1 (centres undefined) read PfKRS1: 5.153%; MtTrpRS: -1.372%; ClpP1P2: 3.485%.

Result for Cc1ccc(N2C[C@@H]3OCCN(Cc4c(C)noc4C)[C@@H]3C2)nn1 was PfKRS1: 5.382%; ClpP1P2: -4.696%. For Cc1cc(N2CCCC2c2nnc3n2CCCCC3)nc(N)n1 (centres undefined) the result was PfKRS1: 1.647%; MtTrpRS: 2.087%; ClpP1P2: -3.308%.